Data published in article doi:10.1101/2020.07.06.189761.
Results are given in words; binding and its absence hold for the method and conditions named. Some binding calls cover weakened binding; strength is not graded here. Where a sequence is shown, tags or fusion partners need not be part of it.

T1: Esa1 subunit of the S. cerevisiae Piccolo NuA4 complex, 6X-His tagged (S. cerevisiae) (UniProt Q08649)
T1 sequence: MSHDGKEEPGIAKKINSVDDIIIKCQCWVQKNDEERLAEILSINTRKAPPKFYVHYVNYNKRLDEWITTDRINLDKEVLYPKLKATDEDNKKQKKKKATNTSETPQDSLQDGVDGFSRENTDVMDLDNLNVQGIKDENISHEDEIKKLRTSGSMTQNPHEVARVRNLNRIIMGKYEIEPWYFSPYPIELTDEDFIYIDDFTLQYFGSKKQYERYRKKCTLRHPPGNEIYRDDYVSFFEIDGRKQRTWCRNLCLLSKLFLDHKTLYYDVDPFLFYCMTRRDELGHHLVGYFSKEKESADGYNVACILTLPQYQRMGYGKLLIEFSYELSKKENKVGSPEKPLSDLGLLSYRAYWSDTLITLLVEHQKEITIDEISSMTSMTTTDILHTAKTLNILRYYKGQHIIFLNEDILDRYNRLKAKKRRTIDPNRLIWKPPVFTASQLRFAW

B1: Epl1 subunit of the S. cerevisiae Piccolo NuA4 complex (protein, UniProt P43572 1-832)
chain: MPTPSNAIEINDGSHKSGRSTRRSGSRSAHDDGLDSFSKGDSGAGASAGSSNSRFRHRKISVKQHLKIYLPNDLKHLDKDELQQREVVEIETGVEKNEEKEVHLHRILQMGSGHTKHKDYIPTPDASMTWNEYDKFYTGSFQETTSYIKFSATVEDCCGTNYNMDERDETFLNEQVNKGSSDILTEDEFEILCSSFEHAIHERQPFLSMDPESILSFEELKPTLIKSDMADFNLRNQLNHEINSHKTHFITQFDPVSQMNTRPLIQLIEKFGSKIYDYWRERKIEVNGYEIFPQLKFERPGEKEEIDPYVCFRRREVRHPRKTRRIDILNSQRLRALHQELKNAKDLALLVAKRENVSLNWINDELKIFDQRVKIKNLKRSLNISGEDDDLINHKRKRPTIVTVEQREAELRKAELKRAAAAAAAAKAKNNKRNNQLEDKSSRLTKQQQQQLLQQQQQQQQNALKTENGKQLANASSSSTSQPITSHVYVKLPSSKIPDIVLEDVDALLNSKEKNARKFVQEKMEKRKIEDADVFFNLTDDPFNPVFDMSLPKNFSTSNVPFASIASSKFQIDRSFYSSHLPEYLKGISDDIRIYDSNGRSRNKDNYNLDTKRIKKTELYDPFQENLEIHSREYPIKFRKRVGRSNIKYVDRMPNFTTSSTKSACSLMDFVDFDSIEKEQYSREGSNDTDSINVYDSKYDEFVRLYDKWKYDSPQNEYGIKFSDEPARLNQISNDTQVIRFGTMLGTKSYEQLREATIKYRRDYITRLKQKHIQHLQQQQQQQQQQQQQAQQQKQKSQNNNSNSSNSLKKLNDSLINSEAKQNSSITQKNSS
B2: Yng2 subunit of the S. cerevisiae Piccolo NuA4 complex (protein, UniProt P38806 1-282)
chain: MDPSLVLEQTIQDVSNLPSEFRYLLEEIGSNDLKLIEEKKKYEQKESQIHKFIRQQGSIPKHPQEDGLDKEIKESLLKCQSLQREKCVLANTALFLIARHLNKLEKNIALLEEDGVLAPVEEDGDMDSAAEASRESSVVSNSSVKKRRAASSSGSVPPTLKKKKTSRTSKLQNEIDVSSREKSVTPVSPSIEKKIARTKEFKNSRNGKGQNGSPENEEEDKTLYCFCQRVSFGEMVACDGPNCKYEWFHYDCVNLKEPPKGTWYCPECKIEMEKNKLKRKRN

Target: T1, Esa1 subunit of the S. cerevisiae Piccolo NuA4 complex, 6X-His tagged (S. cerevisiae)
Test: pull-down

Binder	binding
B1	binds
B2	binds
